Experimental data: PubChem BioAssay AID504784 (Drosophila RNAi Screening Center, 2011)
Screen: 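Search for regulators of lipid droplet storage in oleate-fed fly cells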 (primary screen). Cells: Drosophila Kc167 embryonic cells. Reagent: long dsRNA against Drosophila genes, about 250 ng dsRNA per well. Duration: 4 days. Challenge: cells fed 400 µM oleic acid bound to BSA. Measured: 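Cells imaged and segmented; ratio of lipid droplet area to nuclear area, log-transformed, then normalised as a B-score over the screen; higher means more stored lipid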. Scale: droplet/nuclear area B-score: higher = more stored lipid (overstorage).
In all, the deposit lists about 17,000 reagents; shown is an unselected part of those with a known target gene and a result. 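Each column is one replicate's B-score; the combined score over replicates was not deposited, so single values may mislead.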 A plus sign joins genes that one reagent is predicted to hit.

no.	gene	DRSC id	droplet/nuclear area B-score, replicate 1	droplet/nuclear area B-score, replicate 2	droplet/nuclear area B-score, replicate 3
1	Ogdh	DRSC09854	1.62	-0.0348	-1.32
2	Ogdh	DRSC09855	2.15	2.72	
3	CG31098	DRSC14259	0.839	-0.169	
4	CG34450	DRSC17822	-0.0642	0.49	1.79
5	CG30385	DRSC06031	-1.31	-0.877	
6	CG9485	DRSC04557	-2.3	-0.521	
7	AOX1	DRSC15339	-0.274	-0.319	
8	CG13949	DRSC00367	-0.302	0.286	-0.0769
9	CG13102	DRSC02202	-2.42	0.246	
10	CG9664	DRSC00725	0.941	-0.849	
11	byn	DRSC11332	-0.865	-0.136	
12	Hil	DRSC05989	-0.31	-0.657	
13	Hil	DRSC06395	-0.33	-0.0274	
14	CG42588	DRSC09820	-1.7	-0.737	
15	CG42588	DRSC22121	-0.419	-0.453	
16	EMC5	DRSC02469	0.0444	0.579	
17	CR30068 (retired record)	DRSC05477	0.21	-0.794	
18	smp-30	DRSC17059	-0.737	-0.3	
19	Ir94h	DRSC15232	-1.84	-0.597	
20	CG4669	DRSC10440	-0.118	-0.716	
21	CG14330	DRSC14809	-0.243	1.07	
22	mRpS18C	DRSC16538	2.56	-0.408	
23	Ublcp1	DRSC14149	-0.242	1.26	
24	babo	DRSC07581	-0.227	0.962	
25	Vsx1	DRSC18349	0.735	0.312	-0.904
26	Vsx1	DRSC18350	1.33	3.93	
27	Vsx1	DRSC23004	1	1	
28	mRpS28	DRSC06939	0.668		
29	Ctu2	DRSC02024	0.397	1.58	
30	CG13625	DRSC14627	2.39	-0.422	
31	CG31560	DRSC12136	-0.818	-0.736	
32	Peritrophin-15a	DRSC02636	0.647	-1.14	
33	por	DRSC20362	1.9	0.339	
34	AsnRS-m	DRSC07010	-0.575	0.869	
35	mip130	DRSC18575	-1.61	1.13	
36	CG1492	DRSC19605	0.733	0.678	1.61
37	CG17230	DRSC15203	1.9	-0.0563	
38	CG33061	DRSC09938	0.173	-0.00143	
39	CG33061	DRSC22897	-0.0325	-0.236	
40	CG13310	DRSC09981	2.09	0.306	
41	CG14598	DRSC12541	-0.177	0.233	
42	msopa	DRSC11895	-2.67	-1.4	
43	msopa	DRSC23240	-1.16	-0.0598	
44	CG31300	DRSC14657	-1.18	-1.1	
45	Jheh2	DRSC06530	0.985	-2.55	
46	Cyp308a1	DRSC20238	-0.116	0.174	
47	CG15362	DRSC00392	1.75	1.12	
48	MsR2 + CG13802 (retired record)	DRSC08336	-0.156	0.771	
49	MsR2 + CG13802 (retired record)	DRSC08337	-0.0705	-0.439	
50	MsR2 + CG13802 (retired record)	DRSC22440	1.36	1.63	
51	CG18641	DRSC00527	1.88	-0.894	
52	CG17221	DRSC00487	0.0822	-1.73	
53	CG15356	DRSC00386	-1.34	1.1	
54	Shmt	DRSC18264	0.468	-0.112	
55	CG11504	DRSC14318	-5.58		
56	Atg101	DRSC20020	-0.926	-0.463	
57	Ank	DRSC17127	0.921	9.97	
58	CG3764	DRSC10375	0.363	-0.919	2.06
59	CG4042	DRSC11751	0.352	1.91	
60	Pif2	DRSC12525	0.697	-1.04	
61	Mnt	DRSC17894	1.32		
62	Mnt	DRSC18480	-3.25	0.097	
63	CG17283	DRSC15219	-0.853	-0.68	
64	Arl6IP1	DRSC14231	-0.0285	-0.196	
65	CG31460	DRSC14370	1.79	-0.322	
66	EMC3	DRSC02989	0.762	-0.811	
67	CG5757	DRSC06951	-0.484	-2.8	
68	cpb	DRSC00809	-0.0972	1.39	
69	tal-1A + tal-2A + tal-AA + 1 more	DRSC12992	0.182	-0.419	
70	Obp50d	DRSC05483	-1.38	0.0116	
71	CG9109	DRSC03139	0.0303	1.61	
72	Galt	DRSC03161	-3.38	0.287	
73	CG32344	DRSC08578	-0.692	0.00845	
74	Gr22a	DRSC22283	0.096	0.188	
75	elgi	DRSC10242	-0.0248	-1.41	-0.955
76	betaTub85D	DRSC16910	-1.05	-0.0157	
77	rho	DRSC08734	0.0542	-0.309	
78	Fst	DRSC16491	0.941	-0.0463	
79	tun	DRSC05592	0.964	1.96	
80	tun	DRSC07127	0.944	0.579	
81	CG9691	DRSC18441	0.422	0.631	0.0242
82	CG7509	DRSC08596	-2.02	0.798	
83	CG5114	DRSC10482	-1.46	0.887	0.254
